From the supplement of paper PMC4604168 (melanoma cell lines)
The list shows a part of the results. Single values are uncertain, as repeats are few or missing.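 The apoptosis fraction was the count of cleaved-PARP antibody-stained nuclei relative to all DNA-stained nuclei, imaged in 1,536-well plates. Screening doses were set so most cells survived, and baseline and induced cleaved-PARP levels vary greatly across cell lines.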

What was measured:
Experiment in all cases: cleaved PARP positive nuclei fraction relative to DMSO control; melanoma cells; higher = more apoptosis
Conditions in all cases: library dose: low library concentration; 72 h
501Mel = test system: 501Mel
A101D = test system: A101D
A2058 = test system: A2058
A375 = test system: A375
C32 = test system: C32
CBRC008 = test system: CBRC008 (line from a melanoma biopsy)
CBRC013 = test system: CBRC013 (line from a melanoma biopsy)
CBRC014 = test system: CBRC014 (line from a melanoma biopsy)
CBRC016 = test system: CBRC016 (line from a melanoma biopsy)
CBRC017 = test system: CBRC017 (line from a melanoma biopsy)

| SMILES | cleaved PARP positive nuclei fraction (501Mel) [%] | cleaved PARP positive nuclei fraction (A101D) [%] | cleaved PARP positive nuclei fraction (A2058) [%] | cleaved PARP positive nuclei fraction (A375) [%] | cleaved PARP positive nuclei fraction (C32) [%] | cleaved PARP positive nuclei fraction (CBRC008) [%] | cleaved PARP positive nuclei fraction (CBRC013) [%] | cleaved PARP positive nuclei fraction (CBRC014) [%] | cleaved PARP positive nuclei fraction (CBRC016) [%] | cleaved PARP positive nuclei fraction (CBRC017) [%] |
| --- | --- | --- | --- | --- | --- | --- | --- | --- | --- | --- |
| C[C@]1(c2nc3c(C(N)=O)cccc3[nH]2)CCCN1 [Veliparib] + CC1(C)NC(=O)N(c2ccc([N+](=O)[O-])c(C(F)(F)F)c2)C1=O [nilutamide] (first compound 1.4 µM, partner dose 1 µM) | 81.6 | 64.6 | 309 | 67.1 | 186 | 156 | 184 | 90.8 | 54.1 | 90 |
| CC(=O)c1c(C)c2cnc(Nc3ccc(N4CCNCC4)cn3)nc2n(C2CCCC2)c1=O [palbociclib] + NCC(=O)Nc1ccc(-n2nc(C(F)(F)F)cc2-c2ccc3c(ccc4ccccc43)c2)cc1 [OSU03012] (first compound 0.04 µM, partner dose 1 µM) | 91.8 | 100 | 52.1 | 11700 | 55.8 | 102 | 130 | 97.1 | 154 | 94.4 |
| OCc1c[nH]c2ccccc12 [Indole-3-carbinol] + C[C@@H]1CCN(C(=O)CC#N)C[C@@H]1N(C)c1ncnc2[nH]ccc12 [CP690550] (first compound 0.8 µM, partner dose 1 µM) | 95.1 | 77 | 88.8 | 126 | 125 | 105 | 113 | 77.8 | 246 | 88.2 |
| C[C@@H]1CCN(C(=O)CC#N)C[C@@H]1N(C)c1ncnc2[nH]ccc12 + O=C(O)c1ccc(-c2c[nH]c3ncc(-c4ccccc4)cc23)cc1C1CCCC1 [GSK650394] (first compound 1 µM, partner dose 0.16 µM) | 85.7 | 83.7 | 112 | 150 | 221 | 235 | 81.6 | 89.9 | 158 | 150 |
| Nc1cccc2c1CN(C1CCC(=O)NC1=O)C2=O (stereo not given) [lenalidomide] + NC(=O)Nc1cc(-c2cccc(F)c2)sc1C(=O)N[C@H]1CCCNC1 [AZD7762] (first compound 1 µM, partner dose 0.02 µM) | 67.3 | 44.7 | 57.9 | 83.8 | 222 | 93.4 | 93 | 103 | 138 | 89.6 |
| Clc1ccc(Nc2nnc(Cc3ccncc3)c3ccccc23)cc1 [vatalanib] + C[C@@H]1CCN(C(=O)CC#N)C[C@@H]1N(C)c1ncnc2[nH]ccc12 [CP690550] (first compound 2 µM, partner dose 1 µM) | 184 | 97.7 | 92 | 234 | 79.9 | 130 | 132 | 99.7 | 164 | 92.9 |
| Clc1ccc(Nc2nnc(Cc3ccncc3)c3ccccc23)cc1 [vatalanib] + O=C(O)c1ccc(-c2c[nH]c3ncc(-c4ccccc4)cc23)cc1C1CCCC1 [GSK650394] (first compound 2 µM, partner dose 0.16 µM) | 146 | 94 | 96.5 | 120 | 171 | 402 | 93.8 | 146 | 235 | 196 |
| O=C(CCCCCCC(=O)Nc1ccccc1)NO [vorinostat] + O=C(Nc1cccc(Cl)c1)Nc1ncc(CCNc2ncnc3ccsc23)s1 [SNS314] (first compound 0.08 µM, partner dose 0.0008 µM) | 117 | 57.1 | 111 | 75.4 | 74.2 | 140 | 96.3 | 88.9 | 206 | 84.9 |
| CC(C)(C)c1cnc(CSc2cnc(NC(=O)C3CCNCC3)s2)o1 + NC(=O)Nc1cc(-c2cccc(F)c2)sc1C(=O)N[C@H]1CCCNC1 [AZD7762] (first compound 0.01 µM, partner dose 0.02 µM) | 77.2 | 89.7 | 97.5 | 525 | 53.2 | 229 | 147 | 107 | 178 | 99.7 |
| Cn1c(Nc2ccc(C(F)(F)F)cc2)nc2cc(Oc3ccnc(-c4ncc(C(F)(F)F)[nH]4)c3)ccc21 + CO[C@@H]1[C@H](N(C)C(=O)c2ccccc2)C[C@H]2O[C@]1(C)n1c3ccccc3c3c4c(c5c6ccccc6n2c5c31)C(=O)NC4 [Midostaurin] (first compound 0.08 µM, partner dose 0.08 µM) | 130 | 190 | 140 | 254 | 177 | 75.8 | 89.9 | 77.8 | 189 | 194 |
| COCC[n+]1c2c(n(Cc3cnccn3)c1C)C(=O)c1ccccc1C2=O + Cc1ccc(NC(=O)c2cccc(N(C)C)c2)cc1NC(=O)c1ccc(O)cc1 [ZM336372] (first compound 0.0004 µM, partner dose 2 µM) | 135 | 83.2 | 204 | 101 | 26.4 | 599 | 68.2 | 108 | 92.8 | 186 |
